Assay results reported in the supplement of paper PMC11732987, “Enantioselective OTUD7B fragment discovery through chemoproteomics screening and high-throughput optimisation” (Communications Chemistry, 2025).
The other results are listed elsewhere or left out. The data scatter; read single values as rough.

By UniProt entry, the sequences of proteins in these tests, tags left out. Where a name states a change or a piece, a line headed by the entry shows the natural chain unless it says otherwise. Residues count along the entry.
UniProt P50416: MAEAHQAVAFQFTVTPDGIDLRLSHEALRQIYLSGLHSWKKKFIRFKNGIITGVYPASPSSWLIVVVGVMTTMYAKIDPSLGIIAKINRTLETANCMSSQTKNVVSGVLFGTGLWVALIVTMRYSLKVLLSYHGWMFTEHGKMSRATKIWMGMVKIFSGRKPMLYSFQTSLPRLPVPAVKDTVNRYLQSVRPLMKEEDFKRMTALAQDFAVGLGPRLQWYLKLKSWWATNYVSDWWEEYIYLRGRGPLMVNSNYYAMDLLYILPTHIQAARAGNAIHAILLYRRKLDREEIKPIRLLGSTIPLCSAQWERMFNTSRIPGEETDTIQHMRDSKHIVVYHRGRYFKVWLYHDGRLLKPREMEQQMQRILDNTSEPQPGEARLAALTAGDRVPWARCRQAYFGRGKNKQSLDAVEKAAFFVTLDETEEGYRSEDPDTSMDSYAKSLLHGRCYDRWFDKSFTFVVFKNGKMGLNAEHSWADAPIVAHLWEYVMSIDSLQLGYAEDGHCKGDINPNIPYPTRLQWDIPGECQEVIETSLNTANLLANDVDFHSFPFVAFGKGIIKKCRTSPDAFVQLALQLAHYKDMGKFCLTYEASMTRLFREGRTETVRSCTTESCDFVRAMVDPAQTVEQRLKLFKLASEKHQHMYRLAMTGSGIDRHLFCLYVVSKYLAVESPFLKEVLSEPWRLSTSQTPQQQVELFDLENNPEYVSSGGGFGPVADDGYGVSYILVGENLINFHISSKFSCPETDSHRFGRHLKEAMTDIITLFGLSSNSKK
UniProt Q14008: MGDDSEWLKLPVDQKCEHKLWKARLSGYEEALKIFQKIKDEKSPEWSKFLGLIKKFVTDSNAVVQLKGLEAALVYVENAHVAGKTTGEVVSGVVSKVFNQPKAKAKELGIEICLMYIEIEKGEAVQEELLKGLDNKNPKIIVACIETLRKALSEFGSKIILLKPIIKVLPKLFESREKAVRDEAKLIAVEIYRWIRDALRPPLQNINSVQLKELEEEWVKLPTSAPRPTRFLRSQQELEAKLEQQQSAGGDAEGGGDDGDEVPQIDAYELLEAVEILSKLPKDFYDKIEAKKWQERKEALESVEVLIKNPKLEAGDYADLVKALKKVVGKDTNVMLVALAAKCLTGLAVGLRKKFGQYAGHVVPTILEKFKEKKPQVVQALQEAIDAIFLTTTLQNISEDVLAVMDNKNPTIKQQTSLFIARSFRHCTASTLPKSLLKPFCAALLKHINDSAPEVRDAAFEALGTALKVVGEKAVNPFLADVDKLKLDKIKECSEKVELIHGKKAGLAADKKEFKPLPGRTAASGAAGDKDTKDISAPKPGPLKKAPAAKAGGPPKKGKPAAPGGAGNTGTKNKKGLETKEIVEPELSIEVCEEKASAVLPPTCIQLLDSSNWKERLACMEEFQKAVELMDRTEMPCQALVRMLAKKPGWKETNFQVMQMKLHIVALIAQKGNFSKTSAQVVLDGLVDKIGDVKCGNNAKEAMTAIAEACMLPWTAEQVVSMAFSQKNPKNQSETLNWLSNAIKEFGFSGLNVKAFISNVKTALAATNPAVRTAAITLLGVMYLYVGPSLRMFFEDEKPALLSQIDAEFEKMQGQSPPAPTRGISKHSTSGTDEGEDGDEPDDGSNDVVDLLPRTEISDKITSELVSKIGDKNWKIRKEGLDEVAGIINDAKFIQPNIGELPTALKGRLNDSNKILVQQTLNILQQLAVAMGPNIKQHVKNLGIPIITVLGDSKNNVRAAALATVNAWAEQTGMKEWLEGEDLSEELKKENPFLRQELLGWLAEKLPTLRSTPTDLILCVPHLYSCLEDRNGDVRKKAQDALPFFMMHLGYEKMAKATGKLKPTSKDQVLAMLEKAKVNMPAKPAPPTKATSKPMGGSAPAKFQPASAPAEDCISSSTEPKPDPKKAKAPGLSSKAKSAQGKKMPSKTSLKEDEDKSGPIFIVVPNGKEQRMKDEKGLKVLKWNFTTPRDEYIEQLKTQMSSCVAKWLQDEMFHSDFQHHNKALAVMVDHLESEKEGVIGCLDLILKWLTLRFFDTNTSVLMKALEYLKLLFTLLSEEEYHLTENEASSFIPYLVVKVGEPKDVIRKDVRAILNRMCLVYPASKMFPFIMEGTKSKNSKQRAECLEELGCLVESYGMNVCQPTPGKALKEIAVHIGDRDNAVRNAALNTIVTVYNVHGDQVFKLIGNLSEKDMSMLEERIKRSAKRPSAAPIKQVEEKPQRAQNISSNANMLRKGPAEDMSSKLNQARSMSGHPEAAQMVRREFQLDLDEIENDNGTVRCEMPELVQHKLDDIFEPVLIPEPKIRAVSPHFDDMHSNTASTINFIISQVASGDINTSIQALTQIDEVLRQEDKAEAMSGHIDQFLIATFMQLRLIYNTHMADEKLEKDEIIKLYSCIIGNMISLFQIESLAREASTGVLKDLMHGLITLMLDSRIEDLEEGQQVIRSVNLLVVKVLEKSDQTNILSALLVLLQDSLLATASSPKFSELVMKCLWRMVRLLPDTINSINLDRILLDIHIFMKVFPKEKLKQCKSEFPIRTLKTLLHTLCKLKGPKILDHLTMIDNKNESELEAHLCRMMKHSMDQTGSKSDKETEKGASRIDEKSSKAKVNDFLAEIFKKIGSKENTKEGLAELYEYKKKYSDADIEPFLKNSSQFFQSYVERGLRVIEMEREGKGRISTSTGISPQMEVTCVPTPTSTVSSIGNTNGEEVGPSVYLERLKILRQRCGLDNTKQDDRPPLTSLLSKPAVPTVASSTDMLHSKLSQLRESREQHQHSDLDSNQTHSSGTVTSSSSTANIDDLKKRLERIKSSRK
UniProt Q8NE01, 609-631: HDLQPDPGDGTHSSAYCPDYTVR
UniProt Q92989, 329-351: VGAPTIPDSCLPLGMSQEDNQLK
UniProt Q9BSW2, 494-516: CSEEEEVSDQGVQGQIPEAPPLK
UniProt Q53SF7: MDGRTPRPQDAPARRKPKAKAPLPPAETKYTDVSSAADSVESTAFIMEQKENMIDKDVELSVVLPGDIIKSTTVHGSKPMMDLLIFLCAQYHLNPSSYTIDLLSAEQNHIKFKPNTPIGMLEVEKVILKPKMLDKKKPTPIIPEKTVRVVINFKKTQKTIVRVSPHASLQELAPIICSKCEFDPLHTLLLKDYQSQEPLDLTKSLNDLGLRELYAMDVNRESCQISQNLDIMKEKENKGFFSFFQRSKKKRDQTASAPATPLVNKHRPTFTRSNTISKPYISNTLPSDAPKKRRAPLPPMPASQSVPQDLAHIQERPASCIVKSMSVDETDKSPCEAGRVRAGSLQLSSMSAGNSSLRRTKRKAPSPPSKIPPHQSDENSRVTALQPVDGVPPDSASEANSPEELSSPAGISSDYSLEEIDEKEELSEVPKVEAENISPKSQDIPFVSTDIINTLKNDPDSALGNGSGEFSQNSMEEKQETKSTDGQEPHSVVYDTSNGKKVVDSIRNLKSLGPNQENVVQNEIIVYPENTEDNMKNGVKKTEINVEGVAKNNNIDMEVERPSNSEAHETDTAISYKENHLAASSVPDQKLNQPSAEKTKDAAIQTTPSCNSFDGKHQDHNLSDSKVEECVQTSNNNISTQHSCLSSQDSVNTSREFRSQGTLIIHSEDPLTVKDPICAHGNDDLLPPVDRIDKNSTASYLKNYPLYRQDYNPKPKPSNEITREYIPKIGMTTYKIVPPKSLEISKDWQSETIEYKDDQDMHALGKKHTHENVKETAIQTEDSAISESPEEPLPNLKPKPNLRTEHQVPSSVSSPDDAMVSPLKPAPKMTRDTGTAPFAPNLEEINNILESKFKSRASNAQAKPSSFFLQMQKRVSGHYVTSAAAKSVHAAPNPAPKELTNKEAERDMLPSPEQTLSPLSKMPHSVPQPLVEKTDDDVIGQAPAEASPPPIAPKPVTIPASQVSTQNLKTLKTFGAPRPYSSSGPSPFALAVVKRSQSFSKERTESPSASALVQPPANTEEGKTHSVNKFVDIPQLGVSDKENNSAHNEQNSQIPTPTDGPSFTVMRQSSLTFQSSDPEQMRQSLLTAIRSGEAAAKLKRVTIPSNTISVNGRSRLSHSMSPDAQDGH
UniProt Q9UBF2: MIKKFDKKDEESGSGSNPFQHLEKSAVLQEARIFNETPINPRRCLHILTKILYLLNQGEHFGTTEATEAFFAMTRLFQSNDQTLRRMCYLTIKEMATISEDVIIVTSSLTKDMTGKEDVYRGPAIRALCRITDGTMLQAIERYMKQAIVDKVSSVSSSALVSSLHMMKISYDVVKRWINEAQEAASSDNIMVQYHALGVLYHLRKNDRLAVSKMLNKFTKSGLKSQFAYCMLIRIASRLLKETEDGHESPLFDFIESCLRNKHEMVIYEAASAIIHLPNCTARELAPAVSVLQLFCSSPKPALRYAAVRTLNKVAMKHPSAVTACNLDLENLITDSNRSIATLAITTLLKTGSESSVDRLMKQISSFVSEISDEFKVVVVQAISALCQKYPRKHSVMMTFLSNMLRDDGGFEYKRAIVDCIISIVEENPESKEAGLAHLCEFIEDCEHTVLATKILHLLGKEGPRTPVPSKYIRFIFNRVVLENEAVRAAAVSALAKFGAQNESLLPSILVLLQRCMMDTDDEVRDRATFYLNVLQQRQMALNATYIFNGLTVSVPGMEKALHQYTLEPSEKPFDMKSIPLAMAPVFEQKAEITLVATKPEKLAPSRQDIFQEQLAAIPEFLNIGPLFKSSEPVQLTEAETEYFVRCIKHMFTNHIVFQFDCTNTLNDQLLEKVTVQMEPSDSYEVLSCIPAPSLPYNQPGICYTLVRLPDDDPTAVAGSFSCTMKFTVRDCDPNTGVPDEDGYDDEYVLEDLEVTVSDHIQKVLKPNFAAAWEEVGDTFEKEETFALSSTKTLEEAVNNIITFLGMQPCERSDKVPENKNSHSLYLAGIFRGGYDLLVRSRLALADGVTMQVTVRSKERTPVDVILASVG
UniProt P53621: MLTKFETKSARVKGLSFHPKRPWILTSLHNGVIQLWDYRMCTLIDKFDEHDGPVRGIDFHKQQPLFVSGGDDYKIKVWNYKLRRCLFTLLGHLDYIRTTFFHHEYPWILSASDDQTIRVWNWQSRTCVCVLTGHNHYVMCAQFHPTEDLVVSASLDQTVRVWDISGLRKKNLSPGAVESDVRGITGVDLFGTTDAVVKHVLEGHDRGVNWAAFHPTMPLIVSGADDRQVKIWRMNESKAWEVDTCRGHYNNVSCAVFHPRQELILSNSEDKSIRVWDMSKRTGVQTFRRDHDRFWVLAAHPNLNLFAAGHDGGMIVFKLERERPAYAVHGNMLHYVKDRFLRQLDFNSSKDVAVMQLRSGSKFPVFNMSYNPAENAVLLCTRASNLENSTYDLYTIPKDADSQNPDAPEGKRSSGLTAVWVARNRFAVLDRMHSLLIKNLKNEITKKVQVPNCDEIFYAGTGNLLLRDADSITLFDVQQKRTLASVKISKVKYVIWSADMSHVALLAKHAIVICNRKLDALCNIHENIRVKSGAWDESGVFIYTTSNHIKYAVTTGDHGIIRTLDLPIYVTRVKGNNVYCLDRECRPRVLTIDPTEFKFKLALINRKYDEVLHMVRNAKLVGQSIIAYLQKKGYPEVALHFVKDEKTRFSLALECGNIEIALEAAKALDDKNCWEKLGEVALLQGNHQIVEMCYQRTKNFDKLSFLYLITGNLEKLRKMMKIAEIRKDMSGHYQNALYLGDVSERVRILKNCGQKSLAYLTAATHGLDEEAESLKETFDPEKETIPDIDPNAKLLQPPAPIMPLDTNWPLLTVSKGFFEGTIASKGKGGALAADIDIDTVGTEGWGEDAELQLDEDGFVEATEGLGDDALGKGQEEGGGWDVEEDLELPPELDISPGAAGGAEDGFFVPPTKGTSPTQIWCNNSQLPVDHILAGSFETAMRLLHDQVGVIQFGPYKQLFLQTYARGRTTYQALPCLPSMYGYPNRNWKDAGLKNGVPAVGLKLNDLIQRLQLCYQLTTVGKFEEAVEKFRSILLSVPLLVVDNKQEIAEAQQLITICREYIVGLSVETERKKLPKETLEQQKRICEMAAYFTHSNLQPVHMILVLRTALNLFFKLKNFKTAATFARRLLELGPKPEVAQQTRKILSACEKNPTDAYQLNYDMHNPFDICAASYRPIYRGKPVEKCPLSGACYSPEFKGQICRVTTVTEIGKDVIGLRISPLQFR
UniProt Q8N9A8: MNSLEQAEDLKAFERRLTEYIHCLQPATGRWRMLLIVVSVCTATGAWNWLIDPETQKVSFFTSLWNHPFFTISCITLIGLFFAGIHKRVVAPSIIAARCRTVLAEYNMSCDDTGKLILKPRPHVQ
UniProt P09497: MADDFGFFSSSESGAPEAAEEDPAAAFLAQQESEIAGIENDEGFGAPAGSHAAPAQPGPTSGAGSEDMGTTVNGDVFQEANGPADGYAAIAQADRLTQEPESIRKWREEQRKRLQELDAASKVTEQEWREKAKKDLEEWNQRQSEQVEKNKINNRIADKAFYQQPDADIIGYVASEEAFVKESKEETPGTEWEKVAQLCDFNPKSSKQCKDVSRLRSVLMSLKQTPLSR

Assays:
[1] = compound: ClCC(=O)N[C@@H]1CCCc2ccccc12; test: log2 mean competition ratio of IA-DTB cysteine labelling (DMSO/compound) (log2 ratio); higher = stronger cysteine engagement by compound; settings: treatment time: 4 h, cell line lysate: HEK293T
Protocol: (§1)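 IA-DTB competitive cysteine chemoproteomics in HEK293T RIPA lysate. Lysates were treated with compound 29 or 30 at 50 or 200 µM for 4 h, then IA-DTB (500 µM, 1 h), trypsin-digested, NeutrAvidin-enriched and analysed by diaPASEF. Competition ratio = intensity DMSO / intensity compound (n=4 treated, n=64 DMSO); binding: mean log2 CR ≥ 1 and p ≤ 0.05 plus QC filters. Target is the cysteine site.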

[2] = compound: ClCC(=O)N[C@H]1CCCc2ccccc12; test: as above; settings: treatment time: 4 h, cell line lysate: HEK293T
Protocol: as §1

| Target | log2 mean competition ratio ([1]; 50 µM) | log2 mean competition ratio ([1]; 200 µM) | log2 mean competition ratio ([2]; 50 µM) | log2 mean competition ratio ([2]; 200 µM) |
| --- | --- | --- | --- | --- |
| COPB1 C390 (UniProt P53618) | 0.097 | -0.295 | 0.123 | -0.35 |
| CHEK1 C408 (UniProt O14757) | 0.203 | 0.11 | -0.49 | -0.00629 |
| CPS1 C225 (UniProt P31327) | -0.0492 | -0.227 | 0.112 | -0.0426 |
| CPT1A C742 (UniProt P50416) | 0.0459 | -0.141 | -0.159 | -0.129 |
| COQ5 C170 (UniProt Q5HYK3) | 0.0039 | -0.0714 | 0.0375 | 0.0685 |
| CKAP5 C592 (UniProt Q14008) | -0.26 | 0.0474 | -0.113 | -0.0255 |
| CNNM3 C625 (UniProt Q8NE01) | -0.226 | -0.188 | 0.146 | -0.256 |
| COL4A2 C42 (UniProt P08572) | 0.0191 | 0.163 | 0.178 | 0.201 |
| COLEC12 C27 | -0.00424 | 0.0456 | -0.317 | -0.00552 |
| CNST C408 (UniProt Q6PJW8) | -0.256 | 0.316 | -0.495 | 0.061 |
| CLP1 C338 (UniProt Q92989) | -0.223 | 0.208 | -0.251 | -0.0701 |
| COMT C145 (UniProt P21964) | -0.382 | 0.187 | -0.53 | -0.0577 |
| COPS5 C218 (UniProt Q92905) | -0.107 | -0.076 | -0.123 | -0.105 |
| COG3 C564 (UniProt Q96JB2) | 0.279 | -0.114 | 0.22 | -0.164 |
| CIAO1 C322 (UniProt O76071) | 0.37 | 0.0122 | 0.298 | 0.541 |
| CMAS C380 (UniProt Q8NFW8) | 0.0781 | -0.166 | 0.71 | 0.0574 |
| CLASP2 C662 (UniProt O75122) | -0.0989 | -0.0105 | -0.146 | -0.0717 |
| COPB2 C741 (UniProt P35606) | 0.0857 | 0.207 | -0.741 | -0.11 |
| CNOT4 C175 (UniProt O95628) | -0.179 | -0.0842 | -0.466 | -0.0974 |

Some of the entries above, set out differently.
Target | log2 mean competition ratio ([1]; 50 µM) | log2 mean competition ratio ([1]; 200 µM) | log2 mean competition ratio ([2]; 50 µM) | log2 mean competition ratio ([2]; 200 µM)
CNNM3 C625 (UniProt Q8NE01) | -0.226 | -0.188 | 0.146 | -0.256
COL4A2 C42 (UniProt P08572) | 0.0191 | 0.163 | 0.178 | 0.201

Next results

| Target | log2 mean competition ratio ([1]; 50 µM) | log2 mean competition ratio ([1]; 200 µM) | log2 mean competition ratio ([2]; 50 µM) | log2 mean competition ratio ([2]; 200 µM) |
| --- | --- | --- | --- | --- |
| CNNM3 C376 (UniProt Q8NE01) | -0.344 | -0.191 | -0.196 | -0.106 |
| COG1 C87 (UniProt Q8WTW3) | 0.00713 | 0.201 | 0.0252 | 0.195 |
| COMT C207 (UniProt P21964) | 0.104 | -0.113 | -0.177 | 0.0986 |
| CRACR2A C494 (UniProt Q9BSW2) | -0.159 | -0.206 | -0.317 | 0.0122 |
| COBLL1 C610 (UniProt Q53SF7) | -0.119 | -0.383 | 0.221 | -0.373 |
| CORO1C C420 (UniProt Q9ULV4) | -0.0485 | 0.643 | 0.25 | 0.427 |
| COPG2 C44 (UniProt Q9UBF2) | 0.55 | -0.35 | 0.624 | -0.149 |
| COPA C673 (UniProt P53621) | 0.0085 | -0.143 | 0.432 | -0.0933 |
| CHD8 C1655 (UniProt Q9HCK8) | -0.112 | 0.045 | -0.311 | 0.0883 |
| CNBD2 C535 | -0.181 | 0.13 | -0.469 | 0.177 |
| CHD7 C2324 (UniProt Q9P2D1) | – | -0.469 | 0.309 | -0.0866 |
| COG4 C25 (UniProt Q9H9E3) | -0.0226 | 0.268 | -0.354 | 0.183 |
| CPSF3 C358 (UniProt Q9UKF6) | -0.248 | -0.00851 | 0.109 | -0.167 |
| CNBP C111 (UniProt P62633) | -0.189 | 0.158 | -0.153 | 0.322 |
| CLUH C214 | 0.129 | 0.351 | -0.623 | -0.286 |
| CMIP C623 (UniProt Q8IY22) | -0.122 | -0.172 | -0.165 | 0.0807 |
| CMIP C40 (UniProt Q8IY22) | -0.00607 | 0.279 | 0.377 | 0.352 |
| CNEP1R1 C110 (UniProt Q8N9A8) | -0.348 | -0.148 | -0.0646 | -0.0929 |
| CLTB C199 (UniProt P09497) | 0.0824 | -0.129 | 0.119 | 0.13 |
